Data published in patent US20220056147A1.
These are yes or no findings as the source states them, for the method shown. Some entries that bind do so weakly or less than the wild type.

Sequences of proteins named here, by UniProt entry; tags and fusion partners are left off. A change or cut given only in a name is not applied to a line headed by its entry. A line that says so, or that is headed by a name, gives the form on record, which may keep a tag or linker.
recombinant human MSLN protein (Yiqiao Shenzhou) (Q13421, form named): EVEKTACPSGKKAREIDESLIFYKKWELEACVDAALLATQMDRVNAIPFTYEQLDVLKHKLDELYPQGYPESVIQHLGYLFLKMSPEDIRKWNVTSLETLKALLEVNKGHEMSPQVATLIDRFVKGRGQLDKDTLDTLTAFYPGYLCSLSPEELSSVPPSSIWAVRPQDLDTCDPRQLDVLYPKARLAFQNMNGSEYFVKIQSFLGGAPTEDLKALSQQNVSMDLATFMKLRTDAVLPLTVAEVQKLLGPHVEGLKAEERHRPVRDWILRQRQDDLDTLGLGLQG

Molecular target: recombinant human MSLN protein (Yiqiao Shenzhou) (human) (UniProt Q13421)
Experiment: competition ELISA on plate-coated recombinant MSLN; competitor CA125-his at 200 ng/mL, anti-his detection

binding: binds
B1: RC88 antibody (antibody, human IgG1, kappa, V domains shown)
VH: EVQLVESGGGLVQPGGSLRLSCAASGFDFSRYWMSWVRQAPGKGLEWIGEINPDSSTIVYTPSLKDKFIISRDNAKNTLYLQMNSLRAEDTALYYCARRGSHYYGYRTGYFDVWGAGTTVTVSS
VL: DVVMTQSPAFLSVTPGEKVTMTCSASSSVSYMYWHQQKPDQAPKLLIYDTSNLASGVPVRFSGSGSGTDFTFTISRMEAEDAATYYCQQWSSYPPTFGGGTKVEIKR
